The text below walks through data of publication PMC6203705.

Protein sequences, listed by entry. Tags and fused reporters are not part of them.
UniProt Q9UN81: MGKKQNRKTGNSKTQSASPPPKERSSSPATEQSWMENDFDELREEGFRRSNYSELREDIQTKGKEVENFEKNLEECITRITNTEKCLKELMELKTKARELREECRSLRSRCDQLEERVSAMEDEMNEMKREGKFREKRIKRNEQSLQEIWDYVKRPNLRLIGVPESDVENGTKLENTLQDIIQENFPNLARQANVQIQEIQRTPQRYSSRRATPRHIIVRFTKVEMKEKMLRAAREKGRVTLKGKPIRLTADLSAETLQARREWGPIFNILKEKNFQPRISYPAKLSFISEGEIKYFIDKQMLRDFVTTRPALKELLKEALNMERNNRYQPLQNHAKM
UniProt Q9NS91: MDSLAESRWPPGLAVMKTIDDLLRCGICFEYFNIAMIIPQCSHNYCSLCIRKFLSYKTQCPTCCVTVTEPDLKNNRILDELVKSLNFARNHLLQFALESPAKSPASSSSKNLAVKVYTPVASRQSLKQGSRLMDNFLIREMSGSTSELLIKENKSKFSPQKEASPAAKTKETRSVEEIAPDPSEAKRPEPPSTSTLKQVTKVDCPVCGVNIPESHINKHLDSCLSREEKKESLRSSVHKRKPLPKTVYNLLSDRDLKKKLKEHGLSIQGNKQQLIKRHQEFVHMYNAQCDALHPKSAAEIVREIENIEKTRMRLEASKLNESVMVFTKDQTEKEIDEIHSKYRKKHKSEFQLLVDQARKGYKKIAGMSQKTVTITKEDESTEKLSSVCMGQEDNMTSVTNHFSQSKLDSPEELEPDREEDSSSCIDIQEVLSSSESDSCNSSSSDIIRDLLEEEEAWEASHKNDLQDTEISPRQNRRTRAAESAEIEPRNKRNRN

No constants are given. Whether binding was seen depends on the method and setting. Binding seen in cells or lysates may run through a third protein. Some binding calls cover weakened binding; strength is not graded here.

Assay [1] addresses HA-tagged L1 ORF1p (human) (UniProt Q9UN81). Kind of assay: co-IP; lysates of 293T cells co-expressing Myc-tagged Rad18 (WT, ∆6BD or ∆C2) and HA-tagged L1 ORF1p; precipitated with anti-HA (3F10) and protein-G-Sepharose, 4 °C; blot with anti-Myc-tag; lysis buffer 10 mM Tris-HCl pH 8.0, 150 mM NaCl, 1 mM EDTA, 0.1% NP-40.
Assay [2] addresses Myc-tagged Rad18 (WT) (UniProt Q9NS91). Kind of assay: co-IP; reciprocal: lysates of 293T cells co-expressing Rad18-Myc and HA-L1 ORF1p, treated with or without 100 µg RNase A; precipitated with anti-Myc antibody; blot with anti-HA.
The target of assay [3] is endogenous Rad18 (human (endogenous in 293T)) (UniProt Q9NS91). Kind of assay: co-IP; lysates of 293T cells transfected with pJM101 or pcDNA3-L1 ORF1-HA; endogenous Rad18 precipitated with anti-Rad18 (A301-340A); blot with anti-hORF1p (SE-6798).

“Myc-tagged Rad18 (WT) (from UniProt Q9NS91 1-495)”: the binding result in assay [1] is given as “binds”.
Regarding “HA-tagged L1 ORF1p (from UniProt Q9UN81 1-338)”, the binding entry in assay [2] and in assay [3] was “binds” in each case.
On to “pJM101-derived ORF1p (from UniProt Q9UN81 1-338)”, for which the binding entry in assay [3] is given as “binds”.
